The target of test [1] is MyoD (MYOD1), exogenous expression construct (UniProt P10085). The test is described as follows: co-IP; HEK293 cells co-transfected with expression constructs; whole cell extracts in RIPA buffer, 150-300 ug extract, 1 ug antibody (anti-MYOG F5D or anti-MYOD1 5.8A) overnight at 4 C, protein A beads; western blot with anti-TCEA3. A general note: In western blotting, separated proteins are transferred to a membrane and probed.

Sequences of proteins named here, by UniProt entry; tags and fusion partners are left off.
UniProt P10085: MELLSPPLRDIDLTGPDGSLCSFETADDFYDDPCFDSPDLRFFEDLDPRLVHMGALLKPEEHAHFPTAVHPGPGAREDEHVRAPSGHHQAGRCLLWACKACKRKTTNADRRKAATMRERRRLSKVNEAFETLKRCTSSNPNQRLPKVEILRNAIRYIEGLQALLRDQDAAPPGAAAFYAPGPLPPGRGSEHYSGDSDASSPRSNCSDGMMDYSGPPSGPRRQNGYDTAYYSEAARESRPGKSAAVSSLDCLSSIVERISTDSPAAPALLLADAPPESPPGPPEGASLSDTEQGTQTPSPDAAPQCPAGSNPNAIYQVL

Test [2] has as its target T1, myogenin (MYOG), exogenous expression construct (UniProt P12979).
T1 sequence: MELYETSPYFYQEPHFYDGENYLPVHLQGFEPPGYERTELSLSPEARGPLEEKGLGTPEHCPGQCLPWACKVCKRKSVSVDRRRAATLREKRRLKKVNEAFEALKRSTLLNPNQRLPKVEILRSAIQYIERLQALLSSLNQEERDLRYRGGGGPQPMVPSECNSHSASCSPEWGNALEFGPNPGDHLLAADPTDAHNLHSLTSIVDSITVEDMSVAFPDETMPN
The test is described as above.

Test [3] concerns the target T2, myogenin (MYOG), endogenous, C2C12 cells (mouse (endogenous in C2C12)) (UniProt P12979).
T2 sequence: T1 sequence
The test can be described thus: co-IP; endogenous proteins; extracts of differentiated C2C12 cells (D4 for anti-MYOG, D2 for anti-RPB1) in RIPA buffer, 1 ug antibody overnight at 4 C, protein A beads; western blot with anti-TCEA3.

These are yes or no findings as the source states them, for the method shown. In cells and extracts the contact can be indirect. Some binding calls cover weakened binding; strength is not graded here. For part of these data: Where a sequence is shown, tags or fusion partners need not be part of it.

B1: TCEA3 (exogenous, expression construct in pEF6/V5 His TOPO) (protein, UniProt P23881 1-347)
chain: MGLEEELLRIAKKLEKMVSRKKTEGALDLLKKLNSCQMSIQLLQTTRIGVAVNGVRKHCSDKEVVSLAKVLIKNWKRLLDSPRTTKGEREEREKAKKEKGLGCSDWKPEAGLSPPRKKGGGEPKTRRDSVDSRSSTTSSPKRPSLERSNSSKSKVETPTTPSSPSTPTFAPAVCLLAPCYLTGDSVRDKCVEMLSAALKAEDNFKDYGVNCDKLASEIEDHIYQELKSTDMKYRNRVRSRISNLKDPRNPGLRRNVLSGAISPELIAKMTAEEMASDELRELRNAMTQEAIREHQMAKTGGTTTDLLRCSKCKKKNCTYNQVQTRSADEPMTTFVLCNECGNRWKFC
B1: the binding result in test [1] and in test [2] was “binds” throughout.

B2: TCEA3 (endogenous, C2C12 cells) (protein, UniProt P23881 1-347)
chain: B1 chain
Consider B2, for which the binding entry in test [3] is listed as “binds”.

(Values after publication PMC6546274.)
